# Several values for one entry are separate records, joined by “and”; a condition that tells them apart may be missing. Equal values may be shown once. This is one part of the list. These are further read-outs of the screen, such as a control signal, another cell line or another target. No call is given for them. Compounds called inactive in the main read-out are mostly missing here. Potencies come from curve fits of mixed quality, noted in brackets. Where a SMILES comes first, the peptide text is derived from it. [ ]: non-standard residue; d: D form. The star is where a group is joined. ξ: configuration not given here. ξY = NC(Cc1ccc(O)cc1)C(=O)O; Cbz = O=C(OCc1ccccc1)*; OtBu = CC(C)(C)O*; tBu = CC(C)(C)*
# Assay: qHTS Assay for Lipid Storage Modulators in Drosophila S3 Cells;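 as to cell number change: cells counted by Cell Tracker Red CMTPX staining in the red channel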
# Settings: BODIPY lipid droplet fluorescence, 18-24 h; for cell number change: measured here: cell count max response, cells fed with added oleic acid
# Method in brief: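 Drosophila S3 cells got compounds at several concentrations plus oleic acid (400 uM solution). Laser-scanning cytometry with 488 nm excitation read lipid droplets at 500-530 nm and cells at 575-640 nm. Percent activity was relative to 20 uM Triacsin C.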
# [1] = measured here: cell number channel AC50, cells fed with added oleic acid
# [2] = measured here: lipid fluorescence (Fed channel) AC50, cells fed with added oleic acid
Compound,cell number change,AC50 [1],AC50 [2]
CN(C(=O)c1ccccc1)c1nc2ccccc2s1,114%,"14.6 µM [rising, partial curve]","2.91 µM [rising, partial curve]"
CCOc1nc(Nc2ccccc2F)nc(OCC)n1,-2.12%,"0.0517 µM [falling, full curve, poor fit]","3.66 µM [falling, partial curve, poor fit]"
CCN1CCN(C(CNS(=O)(=O)c2ccc(C)cc2)c2cccnc2)CC1 (centres undefined),13.1%,,"0.103 µM [falling, full curve]"
COc1nc(NCCC2=CCCCC2)nc(OC)n1,-17.4%,,"0.13 µM [rising, full curve, poor fit]"
O=C(c1ccc(Br)o1)N1CCC(c2nc3ccccc3[nH]2)CC1,30.6%,"6.51 µM [rising, partial curve, poor fit]","25.9 µM [rising, single point]"
COc1ccc(-c2nc(CS(=O)CC(=O)N3CCN(C)CC3)c(C)o2)cc1 (centres undefined),14.9%,,
CSc1ccccc1NC(=O)Nc1cccc(F)c1,-2.35%,,"4.11 µM [falling, partial curve, poor fit]"
CCOC(=S)SCC(=O)Nc1ncc(C)s1,-43.2%,"23.1 µM [falling, partial curve, poor fit]","29.1 µM [falling, single point]"
Fc1ccc(N2CCN(Cc3cnc(Oc4ccc(Br)cc4)s3)CC2)cc1,2.49%,"2.31 µM [rising, partial curve, poor fit]",
O=C(Nc1cccc(-n2cnnn2)c1)c1ccc(C(F)(F)F)cc1,0.717%,,"2.91 µM [rising, partial curve]"
CC1CN(C(=O)COc2ccc3ccccc3c2Br)CC(C)O1 (centres undefined),-6.45%,,"2.31 µM [falling, single point]"
O=C(NN=C1CCN(Cc2ccccc2)CC1)c1cc2ccccc2cc1O,9.68%,,"8.2 µM [rising, single point]"
O=C(NCc1cccnc1)c1ccc(-c2cc3ccccc3oc2=O)cc1,6.46%,"6.51 µM [falling, single point]",
C=CCn1c(COc2ccccc2F)nnc1SCC(=O)Nc1cc2oc3ccccc3c2cc1OC,41.6%,"13 µM [rising, partial curve]",
N=C1SCC(=O)N1c1ncc(Cc2cccc(Cl)c2)s1,-45.6%,"29.1 µM [falling, single point]","23.1 µM [falling, single point]"
CCNC(=S)N/N=C(\C)c1ccc2ccccc2c1OC(F)F,31.4%,"0.366 µM [rising, full curve, poor fit]",
CCOc1ccccc1CNc1nc2ccccc2n1C,-8.73%,,"0.116 µM [rising, full curve, poor fit]"

# Reformatted with bars between the fields: part of the list above.
Compound | cell number change | AC50 [1] | AC50 [2]
O=C(c1ccc(Br)o1)N1CCC(c2nc3ccccc3[nH]2)CC1 | 30.6% | 6.51 µM [rising, partial curve, poor fit] | 25.9 µM [rising, single point]
Fc1ccc(N2CCN(Cc3cnc(Oc4ccc(Br)cc4)s3)CC2)cc1 | 2.49% | 2.31 µM [rising, partial curve, poor fit] | 
O=C(NN=C1CCN(Cc2ccccc2)CC1)c1cc2ccccc2cc1O | 9.68% |  | 8.2 µM [rising, single point]
O=C(NCc1cccnc1)c1ccc(-c2cc3ccccc3oc2=O)cc1 | 6.46% | 6.51 µM [falling, single point] | 
N=C1SCC(=O)N1c1ncc(Cc2cccc(Cl)c2)s1 | -45.6% | 29.1 µM [falling, single point] | 23.1 µM [falling, single point]
CCOc1ccccc1CNc1nc2ccccc2n1C | -8.73% |  | 0.116 µM [rising, full curve, poor fit]

# Later entries:

Compound,cell number change,AC50 [1],AC50 [2]
Cc1cccc(-n2cnc(C(=O)Nc3cccnc3)c2)n1,24.2%,,"8.2 µM [rising, partial curve, poor fit]"
C/C(CC(=O)Nc1ccc(Cl)cc1Cl)=N\NC(=O)C(=O)NCCO,29.2%,,"23.1 µM [rising, single point]"
c1ccc(-c2ccc(C(c3ccccc3)n3ccnc3)cc2)cc1 (centres undefined),-50.4% and -72%,"23.1 µM [falling, partial curve]","29.1 µM [falling, single point] and 25.9 µM [falling, partial curve]"
Oc1c(Cl)cc(Cl)c2cccnc12,-41.8%,"18.4 µM [falling, partial curve, poor fit]","18.4 µM [falling, partial curve, poor fit]"
Cc1c2c(nc3nnnn13)CCCC2,5.58%,,
CN(C)S(=O)(=O)n1cnc([C@H]2c3c(ncn3Cc3ccccc3)C[C@H]3COC(=O)[C@@H]32)c1,21.5%,,"0.0058 µM [rising, full curve, poor fit]"
Cc1cc(S(=O)(=O)N2CCN(CC(=O)NCCc3cccs3)CC2)ccc1Br,,,"7.31 µM [falling, partial curve]"
O=C(NCc1ccccc1)C12CC3CC(CC(Br)(C3)C1)C2,15.8%,,"6.51 µM [falling, single point]"
O=C1c2ccccc2C(=O)N1c1ncccn1,-36.6%,"0.731 µM [falling, full curve, poor fit]","5.8 µM [falling, full curve]"
Cc1ccc(N(C(=O)Cn2nnc(-c3ccccc3)n2)C(C(=O)NC2CCCCC2)c2ccccn2)cc1C (centres undefined),-13.5%,"0.411 µM [falling, partial curve, poor fit]","0.517 µM [falling, partial curve]"
CCOC(=O)c1c(NC(=O)COc2ccccc2)sc2c1CC(C)(C)NC2(C)C,-29.4%,,"0.00517 µM [falling, full curve, poor fit]"
COc1ccc(S(=O)(=O)N2CCC(N3CCCCC3)CC2)cc1,,,"6.51 µM [falling, single point]"
CC(=O)N1c2ccc(S(=O)(=O)N3CCCC3C(=O)Nc3ccc(C)cc3)cc2CC1C (centres undefined),3.75%,,"11.6 µM [rising, partial curve]"
CC(C)CCSc1nc(N2CCOCC2)c2c(c1C#N)CC(C)(C)OC2,-1.68%,,"6.51 µM [falling, single point]"
CC(C)(C)OC(=O)C(Cc1ccc(OC(C)(C)C)cc1)NC(=O)CNC(=O)OCc1ccccc1 (stereo not drawn) (Cbz-Gly-[ξY](tBu)-OtBu),-2.57%,"1.64 µM [falling, partial curve, poor fit]","1.84 µM [falling, partial curve, poor fit]"
CCc1ccc(NC(=O)CN2CCCN(S(=O)(=O)c3ccc(F)cc3)CC2)cc1,20.3%,,"29.1 µM [falling, single point]"
O=C(OC1CCN(c2ncc(C(F)(F)F)cc2Cl)CC1)c1cccc(C(F)(F)F)c1,-7.43%,,"3.66 µM [falling, single point]"
